Data published in paper PMC11792487.

The chains behind the UniProt entries cited, without tags or fusion partners.
UniProt Q8NL22: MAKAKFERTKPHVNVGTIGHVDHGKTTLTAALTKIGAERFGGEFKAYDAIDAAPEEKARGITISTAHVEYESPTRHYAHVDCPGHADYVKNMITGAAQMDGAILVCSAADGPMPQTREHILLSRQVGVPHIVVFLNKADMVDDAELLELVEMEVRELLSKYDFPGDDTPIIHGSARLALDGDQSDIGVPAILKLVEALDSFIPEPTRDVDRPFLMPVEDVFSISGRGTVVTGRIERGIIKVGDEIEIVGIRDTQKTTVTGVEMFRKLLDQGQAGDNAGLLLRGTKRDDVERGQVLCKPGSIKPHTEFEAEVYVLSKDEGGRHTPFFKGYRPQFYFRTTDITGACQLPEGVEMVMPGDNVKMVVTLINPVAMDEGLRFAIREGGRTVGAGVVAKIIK

Molecular target: GST-OMPXan (Xanthomonas-specific outer membrane protein XAC1347 fused with GST) (Xanthomonas citri subsp. citri)
Assay: affinity purification with mass spectrometry; only the target purified

## elongation factor Tu (XAC0957 and XAC0970), endogenous in Xcc total proteins (from UniProt Q8NL22 1-396)
  binding: binds

B1: membrane periplasmic TolB (XAC3142), endogenous in Xcc total proteins (protein, UniProt Q8PHV7 23-439)
chain: QQQGLTIDIVGGSASATPIAVIPMPYQGSGTAPQTDVSAVVGADLDRSGQFRTLPAAQIVEKPTRGTEVQFQTWRTLKQNYIVVGRVMDAGEGAYRVEYELFDVAKGERMLGLAMTARANAMRDVSHQMADAIYEKITGVRGAFWTRIAYVTASGKGGAMRYALMVADSDGYNPQTIVRSAEPLLSPNWSPDGKKLAYVSFERGNSSIYLQDIATGARELVSSFRGINGAPSFSPDGRRLALALSRSGNPEIYVMDLGSKQLTQLTNHFGIDTEPTWAPDGGSIYFTSDRGGRPQIYQVAASGGSANRVTFQGNYNATASVSFDGKKIAVAQGSGNTYRIAMMDRSLGSPSWSTLSPGSLDESPSFAPNASMVLYAAREGGRGVLYAVSSDARVRQRLVLADGDVREPAWGPYRTAH
  binding: binds

B2: phosphoglucosamine mutase (XAC2714), endogenous in Xcc total proteins (enzyme, UniProt Q8PJ31 1-449)
chain: MSARKYFGTDGIRGRVGQGVISADFVLRLGNALGRVLTQGRSKRPLVLIGKDTRISGYMFEAALEAGLVAAGADVQLIGPMPTPAIAFLTSTLRADAGVVISASHNPHYDNGIKFFSAEGEKLDDATEAAIEAALDEPFHTVESERLGKAIRTRDAIGRYIEFCKASVARGFTLHGLKMVLDCAHGATYHIAPMLFRELGAEVVVIGAAPDGLNINAGVGSTHIDNLAAKVRECGAHLGIAFDGDGDRVLMADDQGNPVDGDDLLYVLARSWQASGRLTGTVVGTLMTNYGLEQALAALHIPFQRAKVGDRYVHQALVEGGGTLGGETSGHLLCLDRASTGDGIVSALQVLEALGRDRQSLRDALTSLSKVPQKTVNVRLDGGAAKAIVEAANVQQALQQAQAAVRGRGRAFLRPSGTEPVVRVTVEADDAGLMQDTLDRLSGAVRDAA
  binding: binds

Results are given in words; binding and its absence hold for the method and conditions named. Binding seen in cells or lysates may run through a third protein. A yes stands for co-enrichment or nearness to the bait. Other partners may have been found. Tags and fused reporters may be left off the sequences shown.
